Test results: US12486514B2, “Method to specifically stimulate survival and expansion of genetically-modified immune cells” (National University of Singapore, priority 2018, dated 2025)
At least one compound was matched to its structure with a doubt left.

Test system: STAT5 Y647
Experiment: Epo signaling: STAT5 phosphorylation by flow cytometry in transduced T cells
Type: cell-based, human
Method: To detect Epo signaling, cells were incubated in cytokine-free media for 2 hours before stimulated with Epo (0.01-10 IU/mL) at 37° C. for 15 minutes to 24 hours. In some experiments, cells were treated with 0.1-10 μM of ruxolitinib (Selleckchem) or 0.5-5 nM tofacitinib (Santa Cruz Biotechnology, Santa Cruz, CA) for 1 hour prior to Epo stimulation. […] In some experiments, the effects of human Epo were compared to those of murine Epo (Biolegend, San Diego, CA).

N#CC[C@H](C1CCCC1)n1cc(-c2ncnc3[nH]ccc23)cn1 [ruxolitinib]
STAT5 phosphorylation induced by Epo after JAK1/2 inhibitor (EpoR T lymphocytes, 10 μM for 1 hour prior to Epo 10 IU/mL): abrogated | pSTAT5 Y647 phosphorylation after JAK1/2 inhibitor (EpoRm and EpoR T cells, 10 μM): suppressed
